Consider 38 targets from the supplement of paper PMC11006884.

The chains behind the UniProt entries cited, without tags or fusion partners. Where a name states a change or a piece, a line headed by the entry shows the natural chain unless it says otherwise.
UniProt P26639: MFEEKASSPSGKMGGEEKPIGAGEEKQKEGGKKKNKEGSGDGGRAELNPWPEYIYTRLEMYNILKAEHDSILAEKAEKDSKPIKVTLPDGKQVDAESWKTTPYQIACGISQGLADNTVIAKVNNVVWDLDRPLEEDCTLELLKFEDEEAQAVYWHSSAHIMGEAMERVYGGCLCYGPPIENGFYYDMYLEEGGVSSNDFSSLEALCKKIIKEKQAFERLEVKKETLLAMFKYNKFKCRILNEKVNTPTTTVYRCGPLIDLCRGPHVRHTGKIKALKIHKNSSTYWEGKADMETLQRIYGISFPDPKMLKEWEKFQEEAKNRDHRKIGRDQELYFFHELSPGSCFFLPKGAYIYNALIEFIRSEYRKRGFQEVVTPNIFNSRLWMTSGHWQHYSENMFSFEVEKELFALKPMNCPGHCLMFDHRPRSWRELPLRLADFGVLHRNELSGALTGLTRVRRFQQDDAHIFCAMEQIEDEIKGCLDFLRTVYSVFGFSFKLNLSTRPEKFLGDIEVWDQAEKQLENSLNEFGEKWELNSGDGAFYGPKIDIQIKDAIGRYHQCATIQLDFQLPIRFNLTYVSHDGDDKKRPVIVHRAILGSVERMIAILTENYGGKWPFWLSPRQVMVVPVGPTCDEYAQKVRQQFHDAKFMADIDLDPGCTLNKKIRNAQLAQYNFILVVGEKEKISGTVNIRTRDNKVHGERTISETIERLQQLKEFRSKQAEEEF
UniProt P25325: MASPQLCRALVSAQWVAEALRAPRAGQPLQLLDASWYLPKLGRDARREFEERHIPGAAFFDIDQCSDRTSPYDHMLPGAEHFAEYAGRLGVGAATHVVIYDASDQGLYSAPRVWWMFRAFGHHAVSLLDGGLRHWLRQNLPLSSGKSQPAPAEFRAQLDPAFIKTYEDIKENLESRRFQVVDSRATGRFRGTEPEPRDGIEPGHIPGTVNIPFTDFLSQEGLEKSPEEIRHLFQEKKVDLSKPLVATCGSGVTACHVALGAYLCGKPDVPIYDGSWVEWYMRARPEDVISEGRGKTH
UniProt P28838: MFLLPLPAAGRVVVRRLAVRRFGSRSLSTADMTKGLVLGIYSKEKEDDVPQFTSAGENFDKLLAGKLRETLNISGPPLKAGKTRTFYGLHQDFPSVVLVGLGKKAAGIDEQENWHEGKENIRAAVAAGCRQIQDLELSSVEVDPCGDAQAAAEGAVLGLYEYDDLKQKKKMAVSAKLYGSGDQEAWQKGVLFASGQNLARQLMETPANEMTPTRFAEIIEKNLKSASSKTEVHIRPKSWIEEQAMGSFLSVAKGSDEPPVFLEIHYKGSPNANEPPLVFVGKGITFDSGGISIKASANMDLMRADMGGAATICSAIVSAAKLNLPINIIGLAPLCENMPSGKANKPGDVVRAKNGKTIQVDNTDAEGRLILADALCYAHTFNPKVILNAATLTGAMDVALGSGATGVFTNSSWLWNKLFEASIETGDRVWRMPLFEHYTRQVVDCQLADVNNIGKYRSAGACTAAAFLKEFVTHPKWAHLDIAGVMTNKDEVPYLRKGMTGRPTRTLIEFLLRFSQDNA
UniProt P18858, whole entry, looked up: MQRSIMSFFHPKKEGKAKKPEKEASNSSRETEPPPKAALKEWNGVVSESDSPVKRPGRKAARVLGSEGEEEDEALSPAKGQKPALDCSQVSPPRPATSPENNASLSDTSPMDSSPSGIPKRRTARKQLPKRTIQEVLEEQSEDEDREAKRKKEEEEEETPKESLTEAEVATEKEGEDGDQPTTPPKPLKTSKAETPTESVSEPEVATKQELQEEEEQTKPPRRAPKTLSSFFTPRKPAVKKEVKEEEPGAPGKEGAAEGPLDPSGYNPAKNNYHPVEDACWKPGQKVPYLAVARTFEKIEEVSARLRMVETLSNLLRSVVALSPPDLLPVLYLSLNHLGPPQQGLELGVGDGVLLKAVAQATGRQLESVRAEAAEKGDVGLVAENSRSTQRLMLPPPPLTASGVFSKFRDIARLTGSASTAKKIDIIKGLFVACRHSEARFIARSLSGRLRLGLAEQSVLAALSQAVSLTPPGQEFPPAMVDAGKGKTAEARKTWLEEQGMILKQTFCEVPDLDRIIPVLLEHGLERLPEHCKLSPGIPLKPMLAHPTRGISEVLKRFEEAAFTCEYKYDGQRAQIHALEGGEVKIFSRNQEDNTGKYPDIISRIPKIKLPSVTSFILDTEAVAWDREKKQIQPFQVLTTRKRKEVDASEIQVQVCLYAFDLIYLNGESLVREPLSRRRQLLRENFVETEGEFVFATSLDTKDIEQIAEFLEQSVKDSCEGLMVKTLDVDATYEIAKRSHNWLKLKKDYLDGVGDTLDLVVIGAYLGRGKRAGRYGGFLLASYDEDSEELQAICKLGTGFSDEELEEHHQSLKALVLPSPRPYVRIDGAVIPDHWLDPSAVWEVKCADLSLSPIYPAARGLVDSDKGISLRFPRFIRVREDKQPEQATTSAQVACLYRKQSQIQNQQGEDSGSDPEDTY
UniProt P25786: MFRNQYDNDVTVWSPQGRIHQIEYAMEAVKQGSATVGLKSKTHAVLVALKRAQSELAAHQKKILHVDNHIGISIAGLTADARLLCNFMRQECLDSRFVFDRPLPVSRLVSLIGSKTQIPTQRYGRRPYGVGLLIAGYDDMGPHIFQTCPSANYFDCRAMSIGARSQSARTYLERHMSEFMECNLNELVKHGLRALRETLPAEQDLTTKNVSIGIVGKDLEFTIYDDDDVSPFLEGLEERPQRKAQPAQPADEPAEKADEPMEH
UniProt P30084: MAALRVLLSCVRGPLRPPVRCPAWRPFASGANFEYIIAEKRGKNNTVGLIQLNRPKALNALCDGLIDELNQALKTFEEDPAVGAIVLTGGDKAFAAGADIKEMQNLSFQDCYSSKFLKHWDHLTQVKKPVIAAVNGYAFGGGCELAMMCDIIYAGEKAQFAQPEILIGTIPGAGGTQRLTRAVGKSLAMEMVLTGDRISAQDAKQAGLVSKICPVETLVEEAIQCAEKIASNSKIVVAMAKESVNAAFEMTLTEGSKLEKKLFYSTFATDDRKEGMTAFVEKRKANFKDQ
UniProt P29401: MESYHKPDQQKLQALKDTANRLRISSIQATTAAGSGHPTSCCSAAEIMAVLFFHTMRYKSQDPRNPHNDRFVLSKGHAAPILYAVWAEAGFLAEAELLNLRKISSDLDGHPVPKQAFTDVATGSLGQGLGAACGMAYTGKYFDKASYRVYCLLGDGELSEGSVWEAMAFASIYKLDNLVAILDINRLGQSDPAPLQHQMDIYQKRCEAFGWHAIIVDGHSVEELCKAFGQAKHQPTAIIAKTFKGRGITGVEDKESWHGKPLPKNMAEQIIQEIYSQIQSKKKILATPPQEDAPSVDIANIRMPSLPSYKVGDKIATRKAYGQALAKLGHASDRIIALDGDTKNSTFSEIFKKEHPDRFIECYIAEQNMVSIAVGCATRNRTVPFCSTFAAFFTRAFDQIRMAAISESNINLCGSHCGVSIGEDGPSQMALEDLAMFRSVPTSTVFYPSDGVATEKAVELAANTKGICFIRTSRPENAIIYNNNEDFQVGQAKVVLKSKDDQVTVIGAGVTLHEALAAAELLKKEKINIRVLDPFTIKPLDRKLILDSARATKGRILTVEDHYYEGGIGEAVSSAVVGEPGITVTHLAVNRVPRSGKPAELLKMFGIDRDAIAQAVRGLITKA
UniProt P21359: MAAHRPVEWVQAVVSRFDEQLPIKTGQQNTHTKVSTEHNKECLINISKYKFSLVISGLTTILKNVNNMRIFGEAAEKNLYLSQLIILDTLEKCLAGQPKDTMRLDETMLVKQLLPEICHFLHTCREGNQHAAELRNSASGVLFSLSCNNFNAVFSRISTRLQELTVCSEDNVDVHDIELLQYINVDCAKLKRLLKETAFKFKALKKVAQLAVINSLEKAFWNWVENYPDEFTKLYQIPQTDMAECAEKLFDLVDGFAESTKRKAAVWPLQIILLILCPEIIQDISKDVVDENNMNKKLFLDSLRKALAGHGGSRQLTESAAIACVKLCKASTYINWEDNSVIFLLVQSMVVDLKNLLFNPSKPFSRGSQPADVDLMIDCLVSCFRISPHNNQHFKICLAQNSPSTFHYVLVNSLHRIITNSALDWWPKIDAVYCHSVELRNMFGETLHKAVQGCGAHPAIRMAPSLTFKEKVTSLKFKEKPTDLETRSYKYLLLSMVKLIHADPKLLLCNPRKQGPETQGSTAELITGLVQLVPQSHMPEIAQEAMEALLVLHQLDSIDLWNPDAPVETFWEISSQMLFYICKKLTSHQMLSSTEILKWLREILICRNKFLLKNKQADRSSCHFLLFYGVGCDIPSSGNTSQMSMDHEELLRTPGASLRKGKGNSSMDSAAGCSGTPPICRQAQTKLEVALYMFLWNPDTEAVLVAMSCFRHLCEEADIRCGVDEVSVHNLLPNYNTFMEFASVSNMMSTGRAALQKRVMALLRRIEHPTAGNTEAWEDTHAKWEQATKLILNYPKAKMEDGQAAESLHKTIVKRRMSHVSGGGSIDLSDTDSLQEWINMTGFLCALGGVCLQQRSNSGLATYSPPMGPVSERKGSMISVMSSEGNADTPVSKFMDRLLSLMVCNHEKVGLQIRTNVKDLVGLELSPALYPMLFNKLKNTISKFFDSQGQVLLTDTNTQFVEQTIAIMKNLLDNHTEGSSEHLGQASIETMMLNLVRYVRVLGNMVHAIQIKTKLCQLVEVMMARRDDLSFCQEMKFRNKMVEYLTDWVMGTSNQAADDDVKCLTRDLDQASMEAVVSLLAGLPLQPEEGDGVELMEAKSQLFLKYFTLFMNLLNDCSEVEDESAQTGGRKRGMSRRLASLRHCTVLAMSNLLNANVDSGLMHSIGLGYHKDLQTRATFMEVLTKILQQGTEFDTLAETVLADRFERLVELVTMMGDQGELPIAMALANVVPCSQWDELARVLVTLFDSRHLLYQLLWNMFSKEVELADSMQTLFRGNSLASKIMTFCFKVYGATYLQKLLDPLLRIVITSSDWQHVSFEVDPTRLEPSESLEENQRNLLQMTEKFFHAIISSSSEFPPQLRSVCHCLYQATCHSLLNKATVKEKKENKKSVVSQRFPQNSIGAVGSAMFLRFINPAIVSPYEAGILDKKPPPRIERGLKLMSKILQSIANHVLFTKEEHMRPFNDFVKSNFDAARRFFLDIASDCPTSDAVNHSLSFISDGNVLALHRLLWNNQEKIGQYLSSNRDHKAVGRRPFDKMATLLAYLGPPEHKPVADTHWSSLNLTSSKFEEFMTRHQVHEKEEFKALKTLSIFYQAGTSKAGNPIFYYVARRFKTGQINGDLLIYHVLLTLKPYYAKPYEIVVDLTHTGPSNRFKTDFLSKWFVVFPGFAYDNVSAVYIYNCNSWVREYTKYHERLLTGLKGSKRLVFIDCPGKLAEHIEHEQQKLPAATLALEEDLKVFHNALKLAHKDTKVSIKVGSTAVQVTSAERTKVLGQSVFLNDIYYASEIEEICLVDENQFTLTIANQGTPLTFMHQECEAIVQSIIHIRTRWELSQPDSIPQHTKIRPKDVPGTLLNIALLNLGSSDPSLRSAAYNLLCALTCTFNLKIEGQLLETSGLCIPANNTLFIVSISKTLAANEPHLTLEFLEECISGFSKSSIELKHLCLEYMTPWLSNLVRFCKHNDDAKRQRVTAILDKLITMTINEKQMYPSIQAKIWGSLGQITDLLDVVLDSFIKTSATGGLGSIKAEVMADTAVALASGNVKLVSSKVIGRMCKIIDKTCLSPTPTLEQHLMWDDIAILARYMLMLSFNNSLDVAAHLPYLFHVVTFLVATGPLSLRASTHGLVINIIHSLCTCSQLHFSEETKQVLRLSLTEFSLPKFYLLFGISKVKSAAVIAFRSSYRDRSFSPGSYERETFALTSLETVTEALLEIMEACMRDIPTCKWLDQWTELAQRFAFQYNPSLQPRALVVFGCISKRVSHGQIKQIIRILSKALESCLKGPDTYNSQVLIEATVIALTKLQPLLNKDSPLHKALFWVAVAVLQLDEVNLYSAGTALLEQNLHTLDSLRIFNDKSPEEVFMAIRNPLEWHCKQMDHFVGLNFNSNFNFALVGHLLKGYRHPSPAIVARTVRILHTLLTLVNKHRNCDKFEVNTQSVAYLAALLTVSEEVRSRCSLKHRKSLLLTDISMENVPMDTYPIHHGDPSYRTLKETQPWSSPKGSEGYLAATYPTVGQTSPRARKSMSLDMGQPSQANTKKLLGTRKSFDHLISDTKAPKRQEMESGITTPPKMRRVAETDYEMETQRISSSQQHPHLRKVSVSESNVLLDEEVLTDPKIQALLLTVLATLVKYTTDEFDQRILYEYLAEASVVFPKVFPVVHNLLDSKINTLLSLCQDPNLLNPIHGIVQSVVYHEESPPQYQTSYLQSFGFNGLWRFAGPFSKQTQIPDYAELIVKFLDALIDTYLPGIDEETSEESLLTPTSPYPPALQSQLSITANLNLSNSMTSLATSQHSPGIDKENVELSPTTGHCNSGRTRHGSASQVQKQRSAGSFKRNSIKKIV

The entries are a selection whose mix differs from that of the whole data set.

Compound in this assay: COC(=O)C#Cc1ccccc1 [methyl 3-phenylpropiolate]
Kind of assay: log2 ratio of iodoacetamide-alkyne labeling of the cysteine site, DMSO over compound (competition); higher = stronger covalent engagement of the cysteine by the compound, active = 1 or more. Particulars: 500 µM; treatment time 1 h; system: HEK293T cell lysate. The essentials:
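HEK293T lysate at 2 mg/mL was treated with vehicle or electrophile (500 µM) for 1 h at ambient temperature, then labelled with iodoacetamide alkyne (1 h), clicked to sCIP-TMT reagents, pooled, digested with trypsin overnight at 37 °C, enriched on streptavidin and eluted with acid. Peptides were analysed by Orbitrap Eclipse LC-MS/MS with FAIMS and quantified in FragPipe, using duplicate channels and three replicates, with cysteines quantified in only one replicate excluded. The log2 competition ratio for each cysteine is the mean control-channel reporter intensity divided by the mean compound-channel reporter intensity.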
For the target DCK C9 (UniProt P27707), the “log2 ratio of iodoacetamide-alkyne labeling” value (from here on “log2 ratio”) is active: 1.15.

For PRDX3 C229 (UniProt P30048), the “log2 ratio” value is inactive: 0.734.

In the case of RRM1 C26 (UniProt P23921), the “log2 ratio” value is inactive: 0.0708.

For ACAT1 C413 (UniProt P24752), the “log2 ratio” value was inactive: 0.182.

As for SCP2 C94 (UniProt P22307), the “log2 ratio” value was inactive: 0.136.

As for UniProt P20719_C233, the “log2 ratio” value was inactive: 0.162.

With UniProt P26639_C107, the “log2 ratio” value was inactive: 0.12.

With ARF4 C62 (UniProt P18085), the “log2 ratio” value is inactive: -0.015.

As to MPST C7 (UniProt P25325), the “log2 ratio” value is inactive: 0.148.

As for SON C92 (UniProt P18583), the “log2 ratio” value was inactive: 0.775.

Turning to TCEA1 C271 (UniProt P23193), the “log2 ratio” value is inactive: -0.116.

Consider TCP1 C218 (UniProt P17987), for which the “log2 ratio” value was inactive: 0.0267.

In the case of EEF1B2 C161 (UniProt P24534), the “log2 ratio” value is inactive: -0.083.

Consider LAP3 C462 (UniProt P28838), for which the “log2 ratio” value was inactive: -0.162.

Take APC C2664 (UniProt P25054): the “log2 ratio” value is inactive: 0.154.

LAP3 C313 (UniProt P28838): the “log2 ratio” value was inactive: 0.196.

With UniProt P27448_C46, the “log2 ratio” value is inactive: 0.428.

As for FLNA C1912 (UniProt P21333), the “log2 ratio” value was inactive: 0.254.

As for PRDX5 C100 (UniProt P30044), the “log2 ratio” value was inactive: 0.466.

Take FLNA C717 (UniProt P21333): the “log2 ratio” value is inactive: 0.289.

In the case of SON C1551 (UniProt P18583), the “log2 ratio” value is inactive: 0.355.

As for FDXR C353 (UniProt P22570), the “log2 ratio” value is inactive: 0.474.

On to CANX C160 (UniProt P27824), for which the “log2 ratio” value is inactive: 0.611.

Consider TPP2 C28 (UniProt P29144), for which the “log2 ratio” value is inactive: 0.00516.

In the case of LIG1 C532 (UniProt P18858), the “log2 ratio” value was inactive: 0.442.

As for APC C352 (UniProt P25054), the “log2 ratio” value was inactive: -0.211.

In the case of PSMA1 C182 (UniProt P25786), the “log2 ratio” value is inactive: 0.0412.

For the target EEF1B2 C50 (UniProt P24534), the “log2 ratio” value was inactive: -0.0507.

Consider NDUFS1 C226 (UniProt P28331), for which the “log2 ratio” value was inactive: -0.0202.

Consider ECHS1 C111 (UniProt P30084), for which the “log2 ratio” value is inactive: 0.461.

Regarding EPHA2 C612 (UniProt P29317), the “log2 ratio” value is inactive: 0.0671.

As to TKT C42 (UniProt P29401), the “log2 ratio” value was inactive: 0.965.

EEF1G C68 (UniProt P26641): the “log2 ratio” value is inactive: 0.211.

For GART C134 (UniProt P22102), the “log2 ratio” value is inactive: 0.298.

Regarding UniProt P28290_C599, the “log2 ratio” value is inactive: 0.652.

RPL10 C105 (UniProt P27635): the “log2 ratio” value is inactive: 0.809.

For the target CAST C413 (UniProt P20810), the “log2 ratio” value was inactive: 0.756.

As for NF1 C1486 (UniProt P21359), the “log2 ratio” value was inactive: 0.0929.
